PubChem BioAssay AID1159579 | Peter MacCallum Cancer Centre | 2015
Shown is an unselected part of about 2,000 deposited reagents. In the full data, 549 (27%) got an active call. 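Some migration ratios are negative; siRNAs with too few cells are inactive whatever their migration ratio.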 Reagents against one gene are numbered here. Further read-outs or replicates are left out here. Not given: the time to read-out.

Screen: 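Find genes whose silencing alters migration of lymphatic endothelial cells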 (follow-up of hits)
Cell system: human dermal lymphatic endothelial cells
Reagent: single siRNA against human genes, 25 nM
Measured: 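High content images of wound closure area and cell nuclei counts, each the average of two wells, expressed against mock transfection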
Reading the numbers: migration relative to mock: higher = more migration into the scratch; mean nuclei count: higher = more cells remaining
Active means: 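a ratio of at most 0.6 or at least 1.3 marks altered migration and an active call; a mean nuclei count under 3300 forces an inactive call regardless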
Meaning of the calls: active = migration changed (impaired or accelerated); inactive = no migration change, or too few cells

Silencing of PRKCE #1 came out at: migration relative to mock 0.41; mean nuclei count 5544; active.
For PRKCE #2, the values are migration relative to mock 0.72; mean nuclei count 5048; inactive.
Against PRKCE #3 the deposit lists migration relative to mock 0.8; mean nuclei count 5698; inactive.
PRKCE #4 showed migration relative to mock -0.7; mean nuclei count 1732; inactive.
Against ARMC10 #1, the values are migration relative to mock 0.92; mean nuclei count 5966; inactive.
Knock-down of ARMC10 #2 came out at: migration relative to mock 0.72; mean nuclei count 5634; inactive.
For ARMC10 #3, the entry reads migration relative to mock 0.78; mean nuclei count 6092; inactive.
ARMC10 #4 scored migration relative to mock 0.89; mean nuclei count 6410; inactive.
PMEL #1 gave migration relative to mock 0.76; mean nuclei count 6268; inactive.
PMEL #2 showed migration relative to mock 0.5; mean nuclei count 6642; active.
For PMEL #3, the entry reads migration relative to mock 0.82; mean nuclei count 7029; inactive.
With knock-down of PMEL #4, the record shows migration relative to mock 1; mean nuclei count 6755; inactive.
Depletion of SUPT4H1 #1 came out at: migration relative to mock 1.03; mean nuclei count 6238; inactive.
Knock-down of SUPT4H1 #2 gave: migration relative to mock 0.77; mean nuclei count 6256; inactive.
Silencing of SUPT4H1 #3 came out at: migration relative to mock 0.55; mean nuclei count 5081; active.
SUPT4H1 #4 scored migration relative to mock 0.67; mean nuclei count 5336; inactive.
Knock-down of CKM #1 came out at: migration relative to mock 0.42; mean nuclei count 6183; active.
After knock-down of CKM #2 the results were migration relative to mock 0.29; mean nuclei count 3438; active.
With knock-down of CKM #3 the results were migration relative to mock 0.88; mean nuclei count 5248; inactive.
Depletion of CKM #4 resulted in: migration relative to mock 0.64; mean nuclei count 4877; inactive.
INTS1 #1 scored migration relative to mock 0.75; mean nuclei count 5458; inactive.
After knock-down of INTS1 #2, the screen gave migration relative to mock 0.88; mean nuclei count 6168; inactive.
Against INTS1 #3 the deposit lists migration relative to mock 1.02; mean nuclei count 5228; inactive.
Silencing of INTS1 #4 came out at: migration relative to mock 0.93; mean nuclei count 4454; inactive.

Reformatted: 2 of the entries above
gene	reagent	migration relative to mock	mean nuclei count	activity call
ARMC10	1	0.92	5966	inactive
ARMC10	2	0.72	5634	inactive
